Results from patent US12209086B2, “FGFR3 inhibitor compounds” (ELI LILLY AND COMPANY, priority 2021, dated 2025).
Some of these results come from one statement about several compounds together.

The chains behind the UniProt entries cited, without tags or fusion partners. Residues count along the entry.
UniProt P22607, 23-806: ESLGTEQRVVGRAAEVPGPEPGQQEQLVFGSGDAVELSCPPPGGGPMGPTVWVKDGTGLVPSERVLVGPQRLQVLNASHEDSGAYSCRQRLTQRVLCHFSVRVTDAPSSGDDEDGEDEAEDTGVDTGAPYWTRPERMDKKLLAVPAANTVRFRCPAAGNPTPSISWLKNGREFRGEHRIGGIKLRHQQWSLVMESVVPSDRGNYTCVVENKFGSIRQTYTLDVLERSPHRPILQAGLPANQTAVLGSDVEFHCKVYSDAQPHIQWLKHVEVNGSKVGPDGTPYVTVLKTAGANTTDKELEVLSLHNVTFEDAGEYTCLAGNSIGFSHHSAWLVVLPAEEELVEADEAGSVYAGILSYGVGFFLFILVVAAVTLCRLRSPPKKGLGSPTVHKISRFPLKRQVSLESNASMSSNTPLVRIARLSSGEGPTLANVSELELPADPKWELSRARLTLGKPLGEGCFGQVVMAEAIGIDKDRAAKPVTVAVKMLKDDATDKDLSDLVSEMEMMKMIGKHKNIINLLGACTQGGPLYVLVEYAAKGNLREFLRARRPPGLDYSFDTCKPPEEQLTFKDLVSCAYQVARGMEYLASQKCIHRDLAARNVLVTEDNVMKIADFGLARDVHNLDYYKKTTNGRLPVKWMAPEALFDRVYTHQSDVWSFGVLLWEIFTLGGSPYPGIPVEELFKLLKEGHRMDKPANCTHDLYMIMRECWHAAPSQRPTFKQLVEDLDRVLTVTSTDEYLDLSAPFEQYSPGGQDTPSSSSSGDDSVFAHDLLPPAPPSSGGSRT

Target: T1, FGFR3 protein (Homo sapiens, UniProt P22607)
T1 construct: purchased Reaction Biology 1068
Assay: FGFR3 enzyme assay (KinEASE-TK HTRF kinase assay)
Format: biochemical
Details: 0.25 nM enzyme, ATP at Km, 15 min pre-incubation on ice, 30 min at 30° C.

IC50, < 350 nM:
COc1cc(-c2nnn(C3CN(C4CCN(C#N)CC4)C3)c2C)cn2ncc(C#N)c12 [Example 237, 4-[3-(4-[3-Cyano-4-methoxypyrazolo [1,5-a]pyridin-6-yl]-5-methyl-1,2,3-triazol-1-yl)azetidin-1-yl]piperidine-1-carbonitrile. FA]
Cc1c(-c2cc(O[C@H](C)c3ccccn3)n3c(C#N)cnc3c2)nnn1C1CN(C2CCN(C#N)CC2)C1 [Example 238, 4-[3-(4-[3-Cyano-5-[(1R)-1-(pyridin-2-yl)ethoxy]imidazo [1,2-a]pyridin-7-yl]-5-methyl-1,2,3-triazol-1-yl)azetidin-1-yl]piperidine-1-carbonitrile]
Cc1c(-c2cc(OC(C)C)c3c(C#N)cnn3c2)nnn1C1CN(C2CCN(C#N)CC2)C1 [Example 239, 4-[3-(4-[3-cyano-4-isopropoxypyrazolo [1,5-a]pyridin-6-yl]-5-methyl-1,2,3-triazol-1-yl)azetidin-1-yl]piperidine-1-carbonitrile]
COc1cc(-c2cn(C3CN(C4CCN(C#N)CC4)C3)nc2C)cn2ncc(C#N)c12 [Example 240, 4-[3-(4-[3-Cyano-4-methoxypyrazolo[1,5-a]pyridin-6-yl]-3-methylpyrazol-1-yl)azetidin-1-yl]piperidine-1-carbonitrile]
COc1cc(-c2cnn(C3CCN(C#N)CC3)c2)cn2ncc(C#N)c12 [Example 241, 4-(4-[3-Cyano-4-methoxypyrazolo[1,5-a]pyridin-6-yl]pyrazol-1-yl)piperidine-1-carbonitrile]
Cc1c(-c2cc(O[C@H](C)c3ccccn3)c3c(C#N)cnn3c2)cnn1C1CCN(C#N)CC1 [Example 242, 4-(4-[3-Cyano-4-[(1R)-1-(pyridin-2-yl)ethoxy]pyrazolo [1,5-a]pyridin-6-yl]-5-methylpyrazol-1-yl)piperidine-1-carbonitrile]
COc1cc(-c2cnn([C@@H]3C[C@@H](C)N(C#N)C3)c2C)cn2ncc(C#N)c12 [Example 243, (2R,4R)-4-(4-[3-Cyano-4-methoxypyrazolo [1,5-a]pyridin-6-yl]-5-methylpyrazol-1-yl)-2-methyl pyrrolidine-1-carbonitrile]
Cc1c(-c2cc(O[C@@H](C)c3ccccn3)c3c(C#N)cnn3c2)cnn1C1CCN(C#N)CC1 [Example 244, 4-(4-[3-Cyano-4-[(1S)-1-(pyridin-2-yl)ethoxy]pyrazolo [1,5-a]pyridin-6-yl]-5-methylpyrazol-1-yl)piperidine-1-carbonitrile]
Cc1c(-c2cc(O[C@H](C)C3CCOCC3)c3c(C#N)cnn3c2)cnn1C1CCN(C#N)CC1 [Example 245, 4-(4-[3-Cyano-4-[(1R)-1-(oxan-4-yl)ethoxy]pyrazolo [1,5-a]pyridin-6-yl]-5-methylpyrazol-1-yl)piperidine-1-carbonitrile]
Cc1c(-c2cc(OCc3ncccc3F)c3c(C#N)cnn3c2)cnn1C1CCN(C#N)CC1 [Example 246, 4-(4-[3-Cyano-4-[(3-fluoropyridin-2-yl)methoxy]pyrazolo [1,5-a]pyridin-6-yl]-5-methylpyrazol-1-yl)piperidine-1-carbonitrile]
Cc1c(-c2cc(N[C@H](C)c3ccccn3)c3c(C#N)cnn3c2)cnn1[C@@H]1CCN(C#N)C1 [Example 247, (3R)-3-[4-(3-Cyano-4-[[(1R)-1-(pyridin-2-yl)ethyl]amino]pyrazolo[1,5-a]pyridin-6-yl)-5-methylpyrazol-1-yl]pyrrolidine-1-carbonitrile]
COc1cc(-c2cnn(C3CCN([C@@H]4CCN(C#N)C4)CC3)c2C)cn2ncc(C#N)c12 [Example 248, (3R)-3-[4-(4-[3-Cyano-4-methoxypyrazolo [1,5-a]pyridin-6-yl]-5-methylpyrazol-1-yl)piperidin-1-yl]pyrrolidine-1-carbonitrile]
Cc1c(-c2cc(OC(C)(C)c3ccccn3)c3c(C#N)cnn3c2)cnn1C1CCN(C#N)CC1 [Example 249, 4-[4-(3-Cyano-4-[[2-(pyridin-2-yl)propan-2-yl]oxy]pyrazolo [1,5-a]pyridin-6-yl)-5-methylpyrazol-1-yl]piperidine-1-carbonitrile]
Cc1c(-c2cc(N[C@H](C)c3ccccn3)c3c(C#N)cnn3c2)cnn1[C@H]1CCN(C#N)C1 [Example 250, (3S)-3-[4-(3-Cyano-4-[[(1R)-1-(pyridin-2-yl)ethyl]amino]pyrazolo[1,5-a]pyridin-6-yl)-5-methylpyrazol-1-yl]pyrrolidine-1-carbonitrile]
Cc1c(-c2cc(O[C@H](C)c3ccc(F)cn3)n3c(C)cnc3c2)nnn1C1CCN(C#N)CC1 [Example 251, 4-[4-[5-[(1R)-1-(5-fluoro-2-pyridyl)ethoxy]-3-methyl-imidazo [1,2-a]pyridin-7-yl]-5-methyl-triazol-1-yl] piperidine-1-carbonitrile]
Cc1c(-c2cc(O[C@H](C)c3ccc(F)cn3)n3c(C#N)cnc3c2)nnn1C1CC2(CCN(C#N)CC2)C1 [Example 252, 7-[1-(7-cyano-7-azaspiro[3.5]nonan-2-yl)-5-methyl-triazol-4-yl]-5-[(1R)-1-(5-fluoro-2-pyridyl)ethoxy] imidazo[1,2-a]pyridine-3-carbonitrile]
Cc1c(-c2cc(O[C@H](C)c3ncccc3F)n3c(C#N)cnc3c2)nnn1C1CCN(C#N)CC1 [Example 254, 7-[1-(1-Cyano-4-piperidyl)-5-methyl-triazol-4-yl]-5-[(1R)-1-(3-fluoro-2-pyridyl)ethoxy] imidazo[1,2-a]pyridine-3-carbonitrile]
Cc1c(-c2cc(O[C@H](C)c3ccccc3F)n3c(C#N)cnc3c2)nnn1C1CCN(C#N)CC1 [Example 255, 7-[1-(1-Cyano-4-piperidyl)-5-methyl-triazol-4-yl]-5-[(1R)-1-(2-fluorophenyl)ethoxy] imidazo[1,2-a]pyridine-3-carbonitrile]
Cc1c(-c2cc(O[C@H](C)c3ccccc3C#N)c3ccnn3c2)cnn1C1CCN(C#N)CC1 [Example 256, 4-[4-[4-[(1R)-1-(2-Cyanophenyl)ethoxy]pyrazolo[1,5-a]pyridin-6-yl]-5-methyl-pyrazol-1-yl]piperidine-1-carbonitrile]
Cc1c(-c2cc(O[C@H](C)c3ccccn3)n3c(C#N)cnc3c2)nnn1C1CCCN(C#N)CC1 (stereo partly drawn) [Example 257, 7-[1-(1-Cyanoazepan-4-yl)-5-methyl-triazol-4-yl]-5-[(1R)-1-(2-pyridyl)ethoxy] imidazo[1,2-a]pyridine-3-carbonitrile]
COc1cc(-c2cnn(C3CN(C4CC5CCC4N5C#N)C3)c2C)cn2ncc(C#N)c12 (stereo not shown) [Example 258, 6-[1-[1-(7-Cyano-7-azabicyclo[2.2.1]heptan-2-yl)azetidin-3-yl]-5-methyl-pyrazol-4-yl]-4-methoxy-pyrazolo [1,5-a]pyridine-3-carbonitrile]
Cc1c(-c2cc(O[C@H](C)c3ccc(F)cn3)n3c(C#N)cnc3c2)nnn1[C@H]1CCCN(C#N)C1 [Example 259, 7-[1-[(3S)-1-Cyano-3-piperidyl]-5-methyl-triazol-4-yl]-5-[(1R)-1-(5-fluoro-2-pyridyl)ethoxy]imidazo[1,2-a]pyridine-3-carbonitrile]
